Measured values published in article PMC7819943, “Rice protein-binding microarrays: a tool to detect cis-acting elements near promoter regions in rice”.
Some of the results follow.

Target: T1, OsSMF1 (Oryza sativa, UniProt Q6ZLB0 1-436)
T1 sequence: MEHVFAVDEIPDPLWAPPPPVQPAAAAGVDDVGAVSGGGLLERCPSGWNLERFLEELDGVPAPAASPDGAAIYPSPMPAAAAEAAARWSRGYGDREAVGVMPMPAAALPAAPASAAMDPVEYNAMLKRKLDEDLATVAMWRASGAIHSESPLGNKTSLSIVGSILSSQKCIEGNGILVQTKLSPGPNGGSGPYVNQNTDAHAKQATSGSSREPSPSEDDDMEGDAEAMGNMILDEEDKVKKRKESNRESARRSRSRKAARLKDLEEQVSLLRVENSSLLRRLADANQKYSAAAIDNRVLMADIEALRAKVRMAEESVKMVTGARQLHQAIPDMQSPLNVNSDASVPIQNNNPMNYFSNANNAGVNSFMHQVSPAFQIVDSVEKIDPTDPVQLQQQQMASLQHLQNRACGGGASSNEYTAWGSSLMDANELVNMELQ
Experiment: protein-binding microarray (RPBM); PBS, 2% BSA, 51.3 ng/ul salmon testes DNA, 50 uM zinc acetate, 200 nM TF, 25 C, 1 h; high values mean tight binding
Settings: protein: recombinant; tags: N-terminal polyhistidine and DsRed monomer fusion (pET32a); chain copies: 2; label: CyDye5-dUTP incorporated in the synthesized complementary strand; 3' TTTTT single-stranded linker to array surface; dsDNA, one strand shown
In short: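 Binding signal here means per-feature fluorescence intensity in arbitrary units. The values were read on an Axon 4000B scanner after a custom Agilent array, double-stranded by primer extension with Cy5-dUTP, was incubated with 200 nM protein at 25 °C for 1 h in PBS with 2% BSA, salmon testes DNA and 50 µM zinc acetate, then washed. The proteins were transcription factors with an N-terminal polyhistidine tag and DsRed, expressed in E. coli BL21-CodonPlus and purified on Ni–NTA.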

| Sequence | binding signal |
| --- | --- |
| GTGGGCGCCGCCGATGACGACGCGTCACGACCGAATAACCCGGAGTCACCTAGTGCAG | 5160 fluorescence intensity (a.u.) |
| TCGTTATCTCTAACGAGCTAAGATGCCAGCTCGGCTCGTTCGGAGTCACCTAGTGCAG | 3820 fluorescence intensity (a.u.) |
| GGCCCCGTCGACGCTGTGCACCAAACACAATAAAGACATGCGGAGTCACCTAGTGCAG | 3430 fluorescence intensity (a.u.) |
| TCCACTCGCTCTAGTTTGCCTCGTCCCCGCCGCCACCACACGGAGTCACCTAGTGCAG | 3400 fluorescence intensity (a.u.) |
| ATGTTTAGTTCCACGTCAAAATTGGAAGTTTGAAGAAATTCGGAGTCACCTAGTGCAG | 3980 fluorescence intensity (a.u.) |
| AGGCTCATACCATACGCTGTCATCACCGGCCAACACCACCCGGAGTCACCTAGTGCAG | 4240 fluorescence intensity (a.u.) |
| GTACCCTCAAAGCGTGTAGATTCACGGAGGATATTTAGTTCGGAGTCACCTAGTGCAG | 3800 fluorescence intensity (a.u.) |
| TAATTAAGTGTGTAAGCGTCGACGGTTTACGTGGAATTATCGGAGTCACCTAGTGCAG | 4240 fluorescence intensity (a.u.) |
| AGTGCCTCACCAGGTAGTGCATCGTCACCAGCGTCTCCACCGGAGTCACCTAGTGCAG | 5260 fluorescence intensity (a.u.) |
| GTGGTGTTGAAGGGGATGAGGTCGCCGACGGCGAGCGCGGCGGAGTCACCTAGTGCAG | 3600 fluorescence intensity (a.u.) |
| CTCCAGCCACCTCTCTCTCCCTCTCCCGTCACCGCCGACGCGGAGTCACCTAGTGCAG | 3960 fluorescence intensity (a.u.) |
| CAACCTCCGATTTCCAAATCCAGTTGTCTTCTTCTTCCCCCGGAGTCACCTAGTGCAG | 7150 fluorescence intensity (a.u.) |
| GCCAGTTGTTGCTTCTGGGATCATCGCGTGGCATCTCACGCGGAGTCACCTAGTGCAG | 5800 fluorescence intensity (a.u.) |
| CTAAGAAACGGAAAGAGAAAGATGAACTAACACGTGGGCCCGGAGTCACCTAGTGCAG | 6380 fluorescence intensity (a.u.) |
| CCCTCGCTCGCCGGGCGTCTCCGTCACGAACAAGCGCCGCCGGAGTCACCTAGTGCAG | 3940 fluorescence intensity (a.u.) |
| GTATAGGAATTTCAAGACGTGGAATCTCTTTGGGCTGTGTCGGAGTCACCTAGTGCAG | 6120 fluorescence intensity (a.u.) |
| TCGCCGCCGCGGCCGCCTCCACCTCATCATCTCCCACCTCCGGAGTCACCTAGTGCAG | 7900 fluorescence intensity (a.u.) |
| AGTCTTGACCCGTGTGCGTGTGTGATTCATTCCGCCGCAGCGGAGTCACCTAGTGCAG | 3350 fluorescence intensity (a.u.) |
| AATTTCTACTGTCATGCTTCCTTGTCCCATTACTACATTGCGGAGTCACCTAGTGCAG | 3900 fluorescence intensity (a.u.) |
| CAACATATTGTAGCCGCACACGTAGCATGCAGTCCTGGATCGGAGTCACCTAGTGCAG | 3820 fluorescence intensity (a.u.) |
| TACAGTATGTTGTGGAAGGCCTTTGAATTATATTGCATTACGGAGTCACCTAGTGCAG | 49000 fluorescence intensity (a.u.) |
| TGTAATGATTACATATGTGTGATGCTTTCACCATGCTAACCGGAGTCACCTAGTGCAG | 3330 fluorescence intensity (a.u.) |
| GCTAATTCATGGCCCGATTTGATGCTGCGGCATGTGCAGTCGGAGTCACCTAGTGCAG | 3670 fluorescence intensity (a.u.) |
| TTTCTTTCTAATTTAGTGCCACATAAGCGCTACGTCAACCCGGAGTCACCTAGTGCAG | 6370 fluorescence intensity (a.u.) |
| AGACCTTGTGTATACTTGAAGTCGTCTAATACGTGTTGATCGGAGTCACCTAGTGCAG | 3860 fluorescence intensity (a.u.) |
| CCAAGTGATATCTGTGTGTGTGTGTGTATATATATATCCTCGGAGTCACCTAGTGCAG | 3500 fluorescence intensity (a.u.) |
| GGAGTTACCAGGAGTGATGTCGTACGCCTGGCCATCATCGCGGAGTCACCTAGTGCAG | 3220 fluorescence intensity (a.u.) |

Retrieved one by one from the list above (four):

| Sequence | binding signal |
| --- | --- |
| GGCCCCGTCGACGCTGTGCACCAAACACAATAAAGACATGCGGAGTCACCTAGTGCAG | 3430 fluorescence intensity (a.u.) |
| AGGCTCATACCATACGCTGTCATCACCGGCCAACACCACCCGGAGTCACCTAGTGCAG | 4240 fluorescence intensity (a.u.) |
| TAATTAAGTGTGTAAGCGTCGACGGTTTACGTGGAATTATCGGAGTCACCTAGTGCAG | 4240 fluorescence intensity (a.u.) |
| TCGCCGCCGCGGCCGCCTCCACCTCATCATCTCCCACCTCCGGAGTCACCTAGTGCAG | 7900 fluorescence intensity (a.u.) |

Additional records:

| Sequence | binding signal |
| --- | --- |
| TAATTTCAGATTTAGCTGGCTGTAGAATTCACCACTTGATCGGAGTCACCTAGTGCAG | 3250 fluorescence intensity (a.u.) |
| GCGAACCGAGTTAATTTTCTTGAATAGTGACACATGCTCACGGAGTCACCTAGTGCAG | 3540 fluorescence intensity (a.u.) |
| AGCTAGCTGATCGATTAGCCTCGTCAGCTACAAGTGATCGCGGAGTCACCTAGTGCAG | 8000 fluorescence intensity (a.u.) |
| ATATCTCTATTCTATGCATTAGTCATACATGATTTTGAATCGGAGTCACCTAGTGCAG | 3270 fluorescence intensity (a.u.) |
| GCCGAGCAAGTCATACTCGGGTGGCACTGCGCGCGCTCGTCGGAGTCACCTAGTGCAG | 3360 fluorescence intensity (a.u.) |
| ATTCCACCGTAGTCGTACCCCGCCCTCTGCTTTTACTAGTCGGAGTCACCTAGTGCAG | 3760 fluorescence intensity (a.u.) |
| TGCGCCGTAACGTACGTGTCGTCTTCTAGCTGCAGCCAGTCGGAGTCACCTAGTGCAG | 19900 fluorescence intensity (a.u.) |
| AGTCGCGGCGGCGGCGCTCGCGCGTGGCGTGGCGTGGCGACGGAGTCACCTAGTGCAG | 8450 fluorescence intensity (a.u.) |
| TGTTCCAGTGTGGCAACTAGCACTTCCCACGTCCTTGCCACGGAGTCACCTAGTGCAG | 4800 fluorescence intensity (a.u.) |
| TCGACTTATTTTAAGTGCGGTTGTGGAGGTTTTATGTCCACGGAGTCACCTAGTGCAG | 3370 fluorescence intensity (a.u.) |
| GTTCTCGTCGCGAGGCGAGGATGACGTCATCGAGCATGTGCGGAGTCACCTAGTGCAG | 29100 fluorescence intensity (a.u.) |
| TGTCTTGCAAATTAGTCATAATCTGTGCAATTAGTTATTTCGGAGTCACCTAGTGCAG | 3300 fluorescence intensity (a.u.) |
| GACAGGAGGCAAGTAGTGTCAGCGACAGATGGGTCCCACTCGGAGTCACCTAGTGCAG | 4470 fluorescence intensity (a.u.) |
| CAAAAGAACAATTATTGATCAACTAATGTACACGTCCCAGCGGAGTCACCTAGTGCAG | 3200 fluorescence intensity (a.u.) |
| CCTCCACTTCTCCCGGCGGTGGGGTACCTCATCGACGTCGCGGAGTCACCTAGTGCAG | 3550 fluorescence intensity (a.u.) |
| ATGCCTTCAATATGCATGAGCTGGAAAAGAAGTTGTGTGTCGGAGTCACCTAGTGCAG | 4200 fluorescence intensity (a.u.) |
| CTAATATTGGCCTATATAGACACACGTGGGTGCGATGTTTCGGAGTCACCTAGTGCAG | 5380 fluorescence intensity (a.u.) |
| GCTTAAAGATCACATCAAGCTGACAGGGCGACCAGCCACCCGGAGTCACCTAGTGCAG | 3640 fluorescence intensity (a.u.) |
| CACCCGCGCGTCGGCCCGCTCGAGCCCAATTACGGCCCGACGGAGTCACCTAGTGCAG | 4120 fluorescence intensity (a.u.) |
| TGTGCCAGTTGTTAGTCATGATCTTCCTGATGTGTCATCCCGGAGTCACCTAGTGCAG | 10800 fluorescence intensity (a.u.) |
| GAACCAAGCGCCCGCTCCCGGCCGACGCCGACGCCGACGCCGGAGTCACCTAGTGCAG | 3820 fluorescence intensity (a.u.) |
| ATTAAATATATAGTATATAAGAATTATTATTATACCCATCCGGAGTCACCTAGTGCAG | 7790 fluorescence intensity (a.u.) |
| CGAAATAGCCCGCGACCTCTCTCTCTGTGTCTCCGCCGCCCGGAGTCACCTAGTGCAG | 3280 fluorescence intensity (a.u.) |
| CATAACTCTGGATCAGTATGTTGTGATTGCCAGCATGGCTCGGAGTCACCTAGTGCAG | 5360 fluorescence intensity (a.u.) |
| TGAACCTAATTAATCCATGATTATCCTATGTGATGCTACACGGAGTCACCTAGTGCAG | 3310 fluorescence intensity (a.u.) |
| GGGAGGGCAACTGAAGAGGAGTGGCGAGGGAGGGCTTTTGCGGAGTCACCTAGTGCAG | 3660 fluorescence intensity (a.u.) |
| AAGTCAGGGTGTCCACGTCATCACCCTCCCTCTTTCTCCTCGGAGTCACCTAGTGCAG | 55700 fluorescence intensity (a.u.) |
